Data: publication PMC11170731
No constants are given. Whether binding was seen depends on the method and setting. In cells and extracts the contact can be indirect. A result given as binding can be weak or reduced; the word gives no strength. Sequences can lack the tags named with a protein.

The chains behind the UniProt entries cited, without tags or fusion partners. Where a name states a change or a piece, a line headed by the entry shows the natural chain unless it says otherwise.
UniProt Q08924: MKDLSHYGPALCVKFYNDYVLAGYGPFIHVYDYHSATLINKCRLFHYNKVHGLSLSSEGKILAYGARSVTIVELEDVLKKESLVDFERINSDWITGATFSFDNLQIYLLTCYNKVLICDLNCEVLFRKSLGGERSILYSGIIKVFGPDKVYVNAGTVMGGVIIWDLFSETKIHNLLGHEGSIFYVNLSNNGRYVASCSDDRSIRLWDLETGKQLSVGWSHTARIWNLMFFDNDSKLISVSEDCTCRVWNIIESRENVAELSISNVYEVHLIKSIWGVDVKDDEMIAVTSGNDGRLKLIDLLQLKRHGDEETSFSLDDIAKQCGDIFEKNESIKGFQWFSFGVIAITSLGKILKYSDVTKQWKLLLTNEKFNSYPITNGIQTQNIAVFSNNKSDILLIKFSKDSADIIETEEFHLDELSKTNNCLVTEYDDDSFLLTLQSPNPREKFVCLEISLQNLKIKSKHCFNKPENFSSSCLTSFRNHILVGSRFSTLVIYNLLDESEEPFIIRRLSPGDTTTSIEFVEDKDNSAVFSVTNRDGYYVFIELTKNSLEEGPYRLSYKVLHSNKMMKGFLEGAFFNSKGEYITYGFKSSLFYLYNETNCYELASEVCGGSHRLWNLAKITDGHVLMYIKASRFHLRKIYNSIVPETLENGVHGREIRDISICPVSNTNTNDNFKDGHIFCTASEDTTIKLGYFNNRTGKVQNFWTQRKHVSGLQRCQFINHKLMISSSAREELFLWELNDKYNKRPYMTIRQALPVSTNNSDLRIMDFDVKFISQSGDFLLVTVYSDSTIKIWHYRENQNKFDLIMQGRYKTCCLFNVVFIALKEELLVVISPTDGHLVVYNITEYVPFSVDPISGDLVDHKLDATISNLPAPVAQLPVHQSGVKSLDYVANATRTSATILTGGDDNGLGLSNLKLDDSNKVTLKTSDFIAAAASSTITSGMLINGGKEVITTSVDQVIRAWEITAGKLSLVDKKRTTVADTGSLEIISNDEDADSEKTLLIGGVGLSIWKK

Columns and labels:
[1] = molecular target: MORF-tagged Trm734-SDD200AAA (S. cerevisiae) (UniProt Q08924); assay: co-IP; MORF-tagged Trm734 variants coexpressed with Trm7-9myc in yeast; MORF-tagged proteins purified from crude extracts with IgG-Sepharose beads (bind the ZZ domain), eluted in SDS sample buffer; immunoblot with anti-protein A and anti-c-myc
[2] = molecular target: MORF-tagged Trm734-WSH220AAA (S. cerevisiae) (UniProt Q08924); assay: as above

B1: Trm7-9myc (enzyme, UniProt P38238 1-310)
chain: MGKSSKDKRDLYYRKAKEQGYRARSAFKLLQLNDQFHFLDDPNLKRVVDLCAAPGSWSQVLSRKLFDESPSSDKEDRKIVSVDLQPMSPIPHVTTLQADITHPKTLARILKLFGNEKADFVCSDGAPDVTGLHDLDEYVQQQLIMSALQLTACILKKGGTFVAKIFRGRDIDMLYSQLGYLFDKIVCAKPRSSRGTSLEAFIVCLGYNPPSNWTPKLDVNTSVDEFFQGCFLNKLCISDKLSHWNEEERNIAEFMACGSLQSFDSDATYHDLPSSVAGTSSSLDPVQSPTNPPYKKALELKRSGKLTRSV
- binding [1]: binds
- binding [2]: binds
